According to PubChem BioAssay AID504834 (National Center for Advancing Translational Sciences (NCATS), 2011):
Among all 320,000 compounds or so, about 22,000 (6.9%) were called active. Inconclusive means that the source gave no clear call. Such entries were picked first, then a sample of the others. Calls come from the whole dose curve; as a rule, active = well fitted inhibition curve with a large enough effect; inconclusive = small, poorly fitted or top-dose-only effect, or another doubt; inactive = no such curve, though single readings can be large or run the other way. A potency beside an inconclusive call is a rough fit, not a confirmed value.

Test: Primary qHTS for delayed death inhibitors of the malarial parasite plastid, 96 hour incubation
Conditions: P. falciparum luciferase reporter growth; series mostly up to 28.7 µM
How it was run: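 Parasite growth measured via integrated firefly luciferase reporter in P. falciparum. Infected erythrocytes at 2% hematocrit, 0.05% parasitemia final were treated 96 hours at 37 C under 5% CO2, and luminescence was read.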
Potency is the fitted concentration of half-maximal effect.

SMILES	Potency
Cc1nn(CC(=O)NCCCN2C(C)CCCC2C)c(=O)c2cc3occc3n12 (configuration not stated)	inactive
O=c1[nH]c(SCc2ccc(Cl)cc2)nc2[nH]ncc12	inconclusive: 0.415 µM [inhibitor, partial curve, poor fit]
O=C(NCCc1ccccn1)c1cc(-c2ccccc2Cl)nc2ccccc12	inconclusive: 18.5 µM [inhibitor, single point]
CSc1nnc(N2C(=O)C(O)=C(C(=O)c3ccco3)C2c2ccccc2F)s1 (configuration not stated)	inconclusive: 16.5 µM [inhibitor, single point]
Cn1cc(C=C2C(=O)NC(=O)NC2=O)c2ccccc21	inactive
O=C(CC1C(=O)NCCN1Cc1ccc(-c2ccccc2)cc1)NCC1CCOCC1 (configuration not stated)	inconclusive: 6.57 µM [inhibitor, partial curve]
O=C(c1ccc(OC2CCN(C/C=C/c3ccc(F)cc3)CC2)cc1)N1CCCC1	active: 4.15 µM
CC1(C)C(=O)Nc2ccccc2N1C(=O)COc1cc(Cl)ccc1Cl	inconclusive: 18.5 µM [inhibitor, single point]
CCCCCCCCCCn1c2c(c(=N)c3c1CCC3)CCC2	active: 0.117 µM
COc1cc(-c2cc(C(=O)Nc3c(Cl)cc(Cl)cc3Cl)c3ccccc3n2)cc(OC)c1OC	inconclusive: 1.17 µM [inhibitor, full curve, poor fit]
Cc1cccc(NC(=O)CSCC(=O)Nc2cc(Cl)ccc2N2CCOCC2)c1	inconclusive: 10.4 µM [inhibitor, single point]
Cc1ccc(CN2CCN(/N=C/c3ccccc3)CC2)cc1	inactive
O=C(O)C1CCN1C1CCCCC1 (configuration not stated)	inconclusive: 20.8 µM [inhibitor, single point]
COc1ccc(NC(=O)CSc2nnc3ccc(-c4cccnc4)nn23)cc1OC	inconclusive: 0.0738 µM [inhibitor, full curve, poor fit]
Cc1ccnc(NC(=O)c2ccc(S(=O)(=O)NCc3ccco3)cc2)c1	inactive
CCc1nc2ccccc2n1Cc1ccc(F)cc1	inactive
CCCCCCC(=O)N(O)C1CC(=O)N(c2ccc(Cl)cc2)C1=O (configuration not stated)	active: 10.4 µM
CCc1c(C)nc(N)n2c(SCC(=O)NC3CCCCC3)nnc12	inactive
COc1cc(C(CCN2CCCC(C)C2)c2c(OC)cc(OC)c3c(-c4ccccc4)cc(=O)oc23)cc(OC)c1OC (configuration not stated)	active: 2.94 µM
Cc1ccc(Cl)cc1NC(=O)C[n+]1ccc(Cc2ccc([N+](=O)[O-])cc2)cc1	active: 1.85 µM
C=CCNC(=O)c1c2c(nc3ccccc13)-c1ccccc1CC2	inactive
NCCNC(=O)Cc1cccc(NC(=O)Cc2ccc(Nc3ncnc4c3ncn4[C@@H]3O[C@H](CO)[C@@H](O)[C@H]3O)cc2)c1	inconclusive: 10.4 µM [inhibitor, partial curve, poor fit]
CC1(C)Cc2c(cnn2-c2ccccc2)C(NC(=O)c2ccoc2)C1 (configuration not stated)	inconclusive: 11.7 µM [inhibitor, partial curve]

SMILES	Potency
COC(=O)CN1C(=O)Nc2ccc(Br)cc2C1c1ccccc1 (configuration not stated)	active: 3.7 µM
COc1cc(NC(=O)c2ccccc2[N+](=O)[O-])ccc1NC(=O)C(C)C	active: 9.28 µM
O=C(Nc1ccccn1)c1cc2ccccc2o1	inconclusive: 18.5 µM [inhibitor, single point]
CCOc1ccccc1NC(=O)CN(c1ccc(OC)cc1)S(=O)(=O)c1c(C)noc1C	inconclusive: 11.7 µM [inhibitor, partial curve, poor fit]
CCCC[C@]12Cc3cc(C#N)ccc3C(O1)c1c(cc(-c3ccccc3)oc1=O)O2	inconclusive: 0.0054 µM [inhibitor, full curve, poor fit]
Cc1ccc2nc(SC(C)C(=O)N3CCCC3)[nH]c2c1 (configuration not stated)	inactive
O=C(NCCc1csc(-c2cccnc2)n1)c1ccc(Cl)cc1	inconclusive: 9.28 µM [inhibitor, single point]
O=C(O)c1[nH]c2ccccc2c1C(c1cc(Br)ccc1O)c1c(C(=O)O)[nH]c2ccccc12	inconclusive: 3.7 µM [inhibitor, single point]
O=C(CCN1CCc2ccccc2C1)Nc1cccc(F)c1	active: 4.15 µM
CCC(C)NC(=O)CC(NS(=O)(=O)c1ccc(Cl)cc1)c1ccco1 (configuration not stated)	inconclusive: 11.7 µM [inhibitor, partial curve]
CCCCn1c(N)c(N(CC(C)C)C(=O)c2ccc(S(=O)(=O)N3CCCCCC3)cc2)c(=O)[nH]c1=O	inconclusive: 18.5 µM [inhibitor, single point]
O=C(Nc1ccccc1)c1cc(Cl)nc2ccccc12	inconclusive: 14.7 µM [inhibitor, partial curve, poor fit]
CC(=O)Nc1ccc(Sc2ncccc2C(=O)Nc2ccc(OC(F)(F)F)cc2)cn1	inconclusive: 9.28 µM [inhibitor, single point]
COc1ccc(C(=O)Nc2nc(N)n(-c3ccccc3)n2)cc1OC	inconclusive: 11.7 µM [inhibitor, single point]
Cc1cc(N2CCN(C)CC2)nc2ccc(NC(=O)CCC(=O)NCCC(C)C)cc12	inconclusive: 18.5 µM [inhibitor, single point]
COc1ccc(C)cc1NC(=O)c1cc2c(s1)CCC2	inconclusive: 0.0083 µM [inhibitor, full curve, poor fit]
c1ccc2c(c1)nc(N1CCOCC1)c1nnnn12	inconclusive: 0.262 µM [inhibitor, partial curve, poor fit]
FC(F)(F)c1ccc(C2NCCc3sccc32)cc1 (configuration not stated)	inactive
Cc1ccc(NC(=S)NCCN(C2CCCCC2)C2CCCC2)cc1C	inconclusive: 16.5 µM [inhibitor, single point]
O=C(c1ccccc1O)N1N=C(C(F)(F)F)CC1(O)c1ccc([N+](=O)[O-])cc1 (configuration not stated)	inactive
CCN(CC)S(=O)(=O)c1cc(NC(=O)C(C)Nc2ccccc2N2CCOCC2)ccc1C (configuration not stated)	active: 7.38 µM
COC(=O)[C@@]12OC[C@]34[C@H]([C@@H](O)[C@@H]1O)[C@@]1(C)C(=O)C(O[C@@H]5OC(CO)[C@@H](O)[C@@H](O)[C@@H]5O)=C[C@@H](C)[C@@H]1C[C@H]3OC(=O)[C@H](OC(=O)/C=C(\C)C(C)(C)OC(C)=O)[C@@H]24 (some centres not stated)	active: 4.65 µM
O=C(Cn1cnc2c(nnn2Cc2ccccc2)c1=O)c1ccccc1	inconclusive: 10.4 µM [inhibitor, partial curve]

SMILES	Potency
COc1ccc(-n2c(SCC(=O)N3CCCCC3)nc(O)cc2=O)cc1	inactive
CCCCCc1cc(=O)oc2c(C(CCN(CC)CC)c3ccc(N(C)C)cc3)c(OC)cc(OC)c12 (configuration not stated)	inconclusive: 0.0026 µM [inhibitor, full curve, poor fit]
Cc1oc(-c2ccccc2F)nc1CS(=O)(=O)CC(=O)N1CCc2ccccc21	inactive
Cc1cc(=O)[nH]c(S)c1C#N	inconclusive: 14.7 µM [inhibitor, single point]
Cc1ccc2nc(-c3ccccc3)c(CN3CCN(c4ccccc4F)CC3)n2c1	inconclusive: 20.8 µM [inhibitor, partial curve, poor fit]
COc1cccc(/C(O)=C2/C(=O)C(=O)N(CCN(C)C)C2c2ccc(Br)cc2)c1 (configuration not stated)	inactive
CC(C)Oc1ccc(C(=O)Nc2ccc(N3CCCCC3)cc2)cc1	inconclusive: 9.28 µM [inhibitor, single point]
CCCCNc1c(N)n(CCCC)c(=O)[nH]c1=O	inconclusive: 0.465 µM [inhibitor, partial curve, poor fit]
CN(C)Cc1ccccc1Sc1cccc2ccccc12	inconclusive: 18.5 µM [inhibitor, single point]
CCOCCCNC(=O)C(NC(=O)c1ccc(NC(C)=O)cc1)c1ccc(Cl)cc1 (configuration not stated)	inconclusive: 4.65 µM [inhibitor, partial curve, poor fit]
CC(=O)c1c(C)[nH]c(C(=O)Nc2ccc(Cl)c(S(=O)(=O)N3CCOCC3)c2)c1C	active: 4.15 µM
CN(C)c1ccc(CNC(=O)c2cc(S(=O)(=O)N3CCOCC3)cn2C)cc1	inconclusive: 18.5 µM [inhibitor, partial curve, poor fit]
CC(Cl)C(=O)Nc1cc(C(C)(C)C)nn1-c1ccccc1 (configuration not stated)	inactive
CC(C)CCN1CC(C(=O)N2CCN(c3ccc(F)cc3)CC2)CC1=O (configuration not stated)	inconclusive: 9.28 µM [inhibitor, partial curve]
CC(C)Oc1ccc(S(=O)(=O)N2CCOCC2)cc1NC(=O)Cc1cccs1	inconclusive: 5.22 µM [inhibitor, partial curve]
CCOc1cccc(CN2CCCC(N3CCc4cc(OC)c(OC)cc4C3)C2)c1O (configuration not stated)	inconclusive: 18.5 µM [inhibitor, single point]
Cc1ccccc1NC(=S)N(CCCN1CCOCC1)Cc1ccccn1	inconclusive: 18.5 µM [inhibitor, partial curve, poor fit]
CCc1ccc(NC(=O)[C@H](C)NC(=O)C2CCN(C(=O)[C@@H](NC(=O)OC(C)(C)C)C(C)C)CC2)cc1	inconclusive: 14.7 µM [inhibitor, partial curve, poor fit]
COC(=O)c1ccccc1OCCCN(C)C	inactive
Cc1csc2nc(CCNS(=O)(=O)c3ccc4c(c3)OCCO4)cn12	inconclusive: 20.8 µM [inhibitor, single point]
CN(/N=C/c1ccc2c(c1)OCO2)c1ccccc1	inconclusive: 4.65 µM [inhibitor, partial curve, poor fit]

Rewritten with each value named: 4 of the compounds above.
CCCCCc1cc(=O)oc2c(C(CCN(CC)CC)c3ccc(N(C)C)cc3)c(OC)cc(OC)c12 (configuration not stated)
  Potency: inconclusive: 0.0026 µM [inhibitor, full curve, poor fit]
Cc1ccc2nc(-c3ccccc3)c(CN3CCN(c4ccccc4F)CC3)n2c1
  Potency: inconclusive: 20.8 µM [inhibitor, partial curve, poor fit]
CCCCNc1c(N)n(CCCC)c(=O)[nH]c1=O
  Potency: inconclusive: 0.465 µM [inhibitor, partial curve, poor fit]
CN(C)Cc1ccccc1Sc1cccc2ccccc12
  Potency: inconclusive: 18.5 µM [inhibitor, single point]
